# In PubChem BioAssay AID493014 (National Center for Advancing Translational Sciences (NCATS), 2011):
# Some of the results follow. These are further read-outs of the screen, such as a control signal, another cell line or another target. No call is given for them. Most of these compounds were active or inconclusive in the main read-out, so they are no random draw. The note in brackets gives the kind of curve behind each potency; many fits are weak.
# Test: qHTS Assay to Find Inhibitors of Chronic Active B-Cell Receptor Signaling
# Conditions: ABC-DLBCL IkBa-CBG/CBR reporter, luminescence ratio (green luciferase fused to IkBa over red control in TMD8 lymphoma cells), 4 h
# In short: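 Doxycycline induced both beetle luciferases in TMD8 lymphoma cells; IKK-driven degradation limits the IkappaBalpha-fused green signal, while red luminescence normalises for cell number and nonspecific effects. Compounds tested up to 46 uM, 4 hrs.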
# [1] = measured here: CBR red luminescence, cell number
# [2] = measured here: IkBa-CBG green luminescence
Structure (SMILES),AC50 [1],AC50 [2]
CN(Cc1nc(Cc2ccccc2F)no1)[C@@H]1CS(=O)(=O)C[C@H]1O,"0.631 µM [rising, full curve, poor fit]",–
COC(=O)[C@@H](NC(=O)Nc1ccc2c(c1)OCCO2)C(C)C,"11.2 µM [rising, partial curve, poor fit]",–
COC(=O)c1cc(OC)c(OC)cc1NC(=O)C(C)Sc1ccc(C)cc1 (stereo not given),"29.1 µM [rising, single point]",–
O=C(COc1ccc(Cl)cc1Br)Nc1ccccc1N1CCCC1,"25.9 µM [rising, single point]",–
Cc1ccc(-c2noc(C3CCCN(S(=O)(=O)c4ccc5ccccc5c4)C3)n2)o1 (stereo not given),"3.26 µM [rising, full curve, poor fit]",–
COC(=O)c1nc(-c2ccccc2)oc1N(C)C,"29.1 µM [rising, single point]",–
N[C@@H](Cc1ccccc1)c1nnc(SCc2ccccc2F)o1,"17.8 µM [rising, partial curve, poor fit]",–
O=C(c1cc(F)cc2c1OCOC2)N1CCN(c2ccc(F)cc2)CC1,"0.501 µM [rising, full curve, poor fit]",–
O=C(NCc1csc(-c2cccs2)n1)Nc1cccc(Cl)c1,"31.6 µM [rising, single point]",–
O=c1[nH]c(C2CCN(S(=O)(=O)c3ccccc3F)CC2)nc2c1nnn2Cc1ccc(F)cc1,"12.6 µM [falling, partial curve, poor fit]",–
CCn1c(O)c(N=NC(=O)Cc2csc(N3CCOCC3)n2)c2ccccc21,"17.8 µM [falling, single point]",–
CCc1cccc(NC(=O)C2CCCN2S(=O)(=O)c2ccccc2C(F)(F)F)c1 (stereo not given),"20.6 µM [falling, single point]",–
COc1ccc(C2C(C(C)=O)=C(O)C(=O)N2Cc2ccccc2)c(OC)c1 (stereo not given),"35.5 µM [rising, single point]",–
CSc1ncccc1C(=O)Nc1nc(C(C)(C)C)cs1,"15.8 µM [falling, partial curve]",–
COC(=O)c1ccc(O)c(Sc2cc(C(=O)OC)ccc2O)c1,"29.1 µM [falling, single point]",–
CCC(OC(=O)C1=Cc2ccccc2OC1)C(=O)NC1CCCC1 (stereo not given),"5.8 µM [rising, partial curve, poor fit]",–
CC(C)=CC(=O)Nc1nnc(-c2ccccc2)s1,"0.0517 µM [rising, full curve]",–
CS(=O)(=O)N(CC(=O)NCC1CCCO1)c1cccc([N+](=O)[O-])c1 (stereo not given),"3.55 µM [rising, single point]",–
O=C(CNC(=O)c1ccc(Cl)cc1Cl)NCC1CCCO1 (stereo not given),"2.51 µM [rising, full curve, poor fit]",–
CCN(CC(=O)Nc1ccccc1C(F)(F)F)C(=O)c1cccc(N2C(=O)CCC2=O)c1,"29.1 µM [rising, single point]",–
Cn1c(=O)[nH]c(=O)c2c1nc(NCCCn1ccnc1)n2Cc1cccc(Br)c1,"0.0291 µM [rising, full curve, poor fit]",–

# One compound at a time, as listed above. Order of values: AC50 [1]	AC50 [2]
# O=c1[nH]c(C2CCN(S(=O)(=O)c3ccccc3F)CC2)nc2c1nnn2Cc1ccc(F)cc1 is listed with 12.6 µM [falling, partial curve, poor fit]	–
# O=C(COc1ccc(Cl)cc1Br)Nc1ccccc1N1CCCC1 is listed with 25.9 µM [rising, single point]	–
# Cn1c(=O)[nH]c(=O)c2c1nc(NCCCn1ccnc1)n2Cc1cccc(Br)c1 is listed with 0.0291 µM [rising, full curve, poor fit]	–
# O=C(NCc1csc(-c2cccs2)n1)Nc1cccc(Cl)c1 is listed with 31.6 µM [rising, single point]	–

# Following part

Structure (SMILES),AC50 [1],AC50 [2]
CCC(C)(C)n1nnnc1C(C(C)C)N1CCSCC1 (stereo not given),"0.092 µM [rising, partial curve, poor fit]",–
Fc1ccc(COc2cccc3cccnc23)cc1,"35.5 µM [falling, single point]",–
CCOc1cc(C(=O)N2CCc3cc(OC)c(OC)cc3C2)ccc1OC(F)F,"3.16 µM [rising, full curve, poor fit]","2.82 µM [falling, full curve]"
CCC(=O)c1ccc(OCC(=O)OCC(=O)Nc2ccc3c(c2)OCCO3)cc1,"5.8 µM [rising, full curve, poor fit]",–
O=C(O)CC(NC(=O)c1cccc(F)c1)c1ccc(OC2CCCC2)cc1 (stereo not given),"17.8 µM [rising, single point]",–
C#CCOCCOCCOCCNc1nc(N2CCN(C(=O)CCCCCCCCCCNC(=O)Cn3cc(C[C@@H](C)O)nn3)CC2)nc(N2CCN(C(=O)CCCCCCCCCCNC(=O)[C@H](CO)n3cc(CCCSC)nn3)CC2)n1,"29.1 µM [rising, single point]",–
COc1ccc2nc(N(CCN(C)C)C(=O)/C=C/c3cccs3)sc2c1,"35.5 µM [falling, single point]",–
CCc1cccc(NC(=S)N(CCCN2CCOCC2)C(C)c2cc3cccc(OC)c3o2)c1 (stereo not given),"12.6 µM [falling, single point]",–
CCC(C)Sc1cc(-c2nc3ccc(Cl)cn3c2NC2CCCCC2)ccc1OC (stereo not given),"5.8 µM [falling, partial curve, poor fit]",–
CCOC(=O)c1ccc2c(c1)[nH]c(=S)n2CC,"11.2 µM [rising, single point]",–
COc1ccc(CN(C(=O)c2ccc(-c3ccccc3)[nH]2)C(C(=O)NC(C)(C)C)c2ccncc2)cc1 (stereo not given),"35.5 µM [falling, single point]","22.4 µM [rising, partial curve, poor fit]"
COc1ccc(C(=O)/C=C/c2ccc(N3CCCCC3)c([N+](=O)[O-])c2)cc1,"29.1 µM [falling, partial curve, poor fit]",–
Cc1ccc(NC(=S)N(CCCN2CCN(C)CC2)Cc2cccs2)cc1C,"12.6 µM [falling, single point]",–
CCn1c(SCC(=O)c2ccccc2)nnc1-c1cccs1,"15.8 µM [falling, single point]",–
O=S(=O)(CCc1ccncc1)C1Cc2cccc3cccc1c23 (stereo not given),"20 µM [falling, single point]",–
Cc1ccc(Cn2nnc3c(=O)[nH]c(C4CCN(S(=O)(=O)Cc5ccccc5)CC4)nc32)cc1,"11.2 µM [falling, partial curve]",–
C/C(=N\NC(=O)c1ccccc1)c1ccc(C)c([N+](=O)[O-])c1,"18.4 µM [falling, single point]",–
CN(C1CCCC1)C1CCN(C(=O)CNC(=O)/C=C/c2cccc(C(F)(F)F)c2)CC1,"28.2 µM [rising, single point]",–
O=C(OCC(=O)N1CCN(c2ccccc2)CC1)c1ccccc1NCCO,"23.1 µM [falling, single point]",–
Cc1c(NC(=S)NC(=O)C(c2ccccc2)c2ccccc2)cccc1C(=O)O,"7.94 µM [rising, partial curve]","11.2 µM [falling, partial curve]"
c1ccc(-c2csc(Nc3ncccn3)n2)cc1,"1.3 µM [falling, full curve, poor fit]",–

Structure (SMILES),AC50 [1],AC50 [2]
COC(=O)CSc1nnc(CNS(=O)(=O)c2ccc(C)cc2)n1C,"6.31 µM [falling, single point]",–
C#CCOCCOCCOCCNc1nc(N2CCN(C(=O)CCCCCCCCCCNC(=O)[C@H]([C@@H](C)CC)n3cc(CCCCCN)nn3)CC2)nc(N2CCN(C(=O)CCCCCCCCCCNC(=O)[C@H](CCCCN)n3cc(CCCC(=O)O)nn3)CC2)n1,"23.1 µM [rising, partial curve]","25.9 µM [falling, partial curve, poor fit]"
COC(=O)C1=C(C)N=C2SC(C)C(=O)N2C1c1ccc(C(=O)OC)cc1 (stereo not given),"1.41 µM [rising, partial curve]",–
Cc1ccc(-c2nc(-c3nccc4ccccc34)oc2-c2ccccc2)cc1,"2.82 µM [falling, full curve]",–
NC(=O)c1c(Nc2nc3c(F)cccc3s2)sc2c1CCCC2,"29.1 µM [falling, single point]",–
COc1ccc(C(=O)Sc2ccc(C)cc2)cc1OC,"1.46 µM [rising, partial curve, poor fit]",–
CCC(CO)Oc1cc(NCc2ccc(OC)cc2)c2ncn(C(C)C)c2c1 (stereo not given),"0.291 µM [rising, full curve, poor fit]",–
O=C(CCN1C(=O)CSC1=O)Nc1ccccc1,"0.92 µM [rising, full curve, poor fit]",–
COc1cc(/C=C(\C#N)C(=O)NC2CCCCC2)ccc1OCc1ccc(C(=O)O)cc1,"10 µM [falling, partial curve, poor fit]",–
CCc1ccc(NC(=O)c2cc(C)no2)cc1,"0.0891 µM [rising, full curve, poor fit]",–
CCN1C(=O)/C(=C\N2CCN(c3ccccc3)CC2)SC1=S,"4.11 µM [rising, partial curve]",–
CN(C)CCCN(C(=O)c1ccc2c(c1)CCCC2)c1nc2ccc(F)cc2s1,"29.1 µM [falling, single point]",–
Cc1ccn2c(C(=O)NNC(=O)Nc3ccc(Cl)cc3)c(C)nc2c1,"2.51 µM [rising, full curve]",–
O=C(CCc1ccccc1)N1CCN(c2ccc([N+](=O)[O-])cc2)CC1,"10 µM [falling, partial curve]",–
COc1cccc(OC)c1-c1nn2c(-c3ccco3)nnc2s1,"3.55 µM [rising, partial curve, poor fit]",–
CNS(=O)(=O)c1cccc(C(=O)OCC(=O)c2cc(C)n(CC3CCCO3)c2C)c1 (stereo not given),"18.4 µM [rising, single point]",–
Cc1ccc(C[n+]2cc(-c3ccc(Cl)cc3)n3c2CCC3)cc1,"12.6 µM [falling, partial curve]",–
O=C(Nc1ccc(N2CCOCC2)c(Cl)c1)c1ccco1,–,"20.6 µM [falling, single point]"
CCN(CCCNc1ncnc2nc[nH]c12)c1cccc(C)c1,"4.11 µM [rising, single point]",–
